From article PMC4417160
Positions count from the first letter of the chain named. For some of these results: Where a protein sequence is shown, tags need not be part of it. For some of these results: Construct, isoform or probe ends are uncertain for at least one entry. For some of these results: Results from cells or extracts need not show a direct contact. For some of these results: No signal at the amounts used counts as a negative. For some of these results: At least one verdict was read from the data and is not stated in words by the source.

The chains behind the UniProt entries cited, without tags or fusion partners. Where a name states a change or a piece, a line headed by the entry shows the natural chain unless it says otherwise.
UniProt Q9Y580: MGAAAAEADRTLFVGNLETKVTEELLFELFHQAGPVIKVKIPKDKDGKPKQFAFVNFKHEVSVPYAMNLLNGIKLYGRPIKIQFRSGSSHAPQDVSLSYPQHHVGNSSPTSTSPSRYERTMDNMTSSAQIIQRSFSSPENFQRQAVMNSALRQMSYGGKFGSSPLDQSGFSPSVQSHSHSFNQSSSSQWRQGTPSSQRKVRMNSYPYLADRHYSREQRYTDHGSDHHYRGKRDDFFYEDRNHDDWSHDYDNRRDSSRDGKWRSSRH

Columns and labels:
[1] = test system: RBM7 (NEXT subunit) + SKIV2L2 (NEXT subunit) + ZCCHC8 (NEXT subunit); experiment: pull-down, LC-MS/MS; conditions: HEK293 extract; pull-down: HSB, 1 h at 30 C; protein in an extract; label: biotin, 5'
[2] = target: T1, ZC3H18 (Homo sapiens (HEK293)) (UniProt Q86VM9); experiment: pull-down, LC-MS/MS; conditions: HEK293 extract; pull-down: HSB, 1 h at 30 C; protein in an extract; label: biotin, 5'
T1 sequence (looked up, limits assumed): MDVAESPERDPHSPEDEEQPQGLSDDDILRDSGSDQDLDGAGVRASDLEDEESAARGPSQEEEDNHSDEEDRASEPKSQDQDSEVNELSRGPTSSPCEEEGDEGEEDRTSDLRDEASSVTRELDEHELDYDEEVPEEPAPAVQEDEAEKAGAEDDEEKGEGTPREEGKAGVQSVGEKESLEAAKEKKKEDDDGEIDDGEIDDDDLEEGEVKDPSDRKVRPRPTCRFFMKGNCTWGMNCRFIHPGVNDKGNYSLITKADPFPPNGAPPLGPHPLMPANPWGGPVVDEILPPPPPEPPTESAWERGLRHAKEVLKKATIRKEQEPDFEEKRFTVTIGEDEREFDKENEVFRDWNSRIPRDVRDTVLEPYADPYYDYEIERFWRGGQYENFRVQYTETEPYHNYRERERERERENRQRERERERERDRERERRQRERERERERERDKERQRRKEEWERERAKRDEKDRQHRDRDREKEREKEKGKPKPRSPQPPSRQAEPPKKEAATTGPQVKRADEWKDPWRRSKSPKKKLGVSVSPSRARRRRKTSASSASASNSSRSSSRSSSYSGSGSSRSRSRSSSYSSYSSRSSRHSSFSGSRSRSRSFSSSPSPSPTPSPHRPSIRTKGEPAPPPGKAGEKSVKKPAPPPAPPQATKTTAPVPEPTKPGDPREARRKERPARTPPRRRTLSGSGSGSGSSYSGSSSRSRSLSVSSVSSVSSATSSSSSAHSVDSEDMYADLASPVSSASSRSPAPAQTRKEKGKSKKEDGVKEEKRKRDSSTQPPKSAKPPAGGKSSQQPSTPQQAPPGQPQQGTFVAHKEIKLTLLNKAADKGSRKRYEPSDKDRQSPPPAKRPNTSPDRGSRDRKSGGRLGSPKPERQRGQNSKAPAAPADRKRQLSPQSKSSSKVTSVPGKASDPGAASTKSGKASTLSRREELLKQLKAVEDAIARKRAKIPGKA

[3] = target: T2, RBM7 RRM F13A (Homo sapiens) (UniProt Q9Y580); experiment: fluorescence anisotropy; conditions: printed as >>200; FA: 50 mM Tris pH 7.0 (also given as pH 8), 200 mM NaCl, 10 mM 2-mercaptoethanol, 20 C; recombinant protein; residues 6-94; protein details: 6xHis-Smt3 removed with Ulp1; label: 5' fluorescein
T2 sequence (looked up): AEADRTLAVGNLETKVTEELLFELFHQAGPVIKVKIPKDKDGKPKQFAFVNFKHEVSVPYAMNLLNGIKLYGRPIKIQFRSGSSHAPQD

[4] = target: RBM7 RRM F52A (Homo sapiens) (UniProt Q9Y580); experiment: fluorescence anisotropy; conditions: printed as >>200; FA: 50 mM Tris pH 7.0 (also given as pH 8), 200 mM NaCl, 10 mM 2-mercaptoethanol, 20 C; recombinant protein; residues 6-94; protein details: 6xHis-Smt3 removed with Ulp1; label: 5' fluorescein
[5] = target: T3, RBM7 RRM (Homo sapiens (cDNA from HEK293T-Rex)) (UniProt Q9Y580); experiment: fluorescence anisotropy; conditions: printed as >>150; FA: 50 mM Tris pH 7.0 (also given as pH 8), 200 mM NaCl, 10 mM 2-mercaptoethanol, 20 C; recombinant protein; residues 6-94; protein details: 6xHis-Smt3 removed with Ulp1; label: 5' fluorescein
T3 sequence (looked up): T2 sequence (looked up) with A8F

Sequence | binding result [1] | binding result [2] | Kd [3] [µM] | Kd [4] [µM] | Kd [5] [µM]
UUUUUUUUUUUUUUUUUUUUUUUUUUUUUU [Btn-Oligo U30] | binds | binds | – | – | –
CUCUCUC [Y7] | – | – | > 200 | > 200 | –
CCCCCCC [C7] | – | – | – | – | > 150
GAACAUAUUUCACCAACAUUAUACUGUGUC [Btn-Random RNA] | no binding | no binding | – | – | –
